Results are given in words; binding and its absence hold for the method and conditions named. Binding seen in cells or lysates may run through a third protein. These calls come from enrichment with a bait or labelling near it, and not all partners need be listed.
B1: Arid4a (Rbp1) (protein, UniProt F8VPQ2 1-1261)
chain: MKAADEPAYLTVGTDVSAKYRGAFCEAKIKTVKRLVKVKVLLKQDNTTQLVQDDQVKGPLRVGAIVETRTSDGSIQEAIISKLTDASWYTVVFDDGDERTLRRTSLCLKGERHFAESETLDQLPLTNPEHFGTPVIAKKTNRGRRSSLPITEDEKEEESSEEEDEDKRRLNDELLGKVVSVASTAESTGWYPALVVSPSCNDDVTVKKDQCLVRSFIDSKFYSIARKDIKELDILTLPESELCARPGLRRASVFLKGRIVPDNWKMDISEILESSSSDDEECPAEEHEEEKEKEAKKEEEELPEEELDPEERDNFLQQLYKFMEDRGTPINKPPVLGYKDLNLFKLFRLVYHQGGCGNIDSGAVWKQIYMDLGIPILNSAASYNVKTAYRKYLYGFEEYCRSANIQFRTIHHHEPKVKEEKKDFEDSMDEALKEAPEMPLLDVKSEPEENTDSNSESDREDTELKSPRGRRKIVRDANCIKKEIEEEKIEDKFLRDDLENKDAGDDDDDGDPAAKREHELLFGRKSTPKNKEKKIKKPEDSERDSDEEEEKSQEREETESRCDSEGEDEEDDTEPCLTGTKVKVKYGRGKTQKIYEASIKSTEMDDGEILYLVHYYGWNVRYDEWVKADRIIWPLDKGGPKKKQKKKVKNKEDSEKDEKRDEERQKSKRGRPPLKSTFSPNMPYSLSKTSNSEGKSDSCSSDSEADDQLEKSSGGEDLSPDVKEELEKNENAHDDKLDEENPKIVHISKENDRTQAQPSDTLTVEAGDSDQIVHIFGDKVDQVEEFKKQVEKSPKGKGRRSKTKDLSLELIKISPFGQEEAGSEAHGDVHSLEFSSLECKNFSSTEDDIDPYEKEKKLKRKILGQQSPEKKLRLDNGMEMTTGVSQERSDDGAGAEGMKGAHVEQHFETEGEGMPSLTAEPDQGLQELTSEKSDSPAEEEPVHTPLKEEEDAMPLIGPETLVCHEVDLDDLDEKDKTSIEDVVVEGSESNSLASVPPALPPVAQHNFSVASPLTLSQDESRSIKSESDITIEVDSIAEESQEGLCERESANGFEASVASGACSIIAHERESREKGQKRPSDGNSGLIAKKQKRTPKRTSAAAKTEKNGAGQSSDSEDLPAMDSSSNCTPVKRLTLPKSQKLPRSPARTSPHIKDAEKEKHREKHPNSSPRTYKWSFQLNELDNMNSTERISFLQEKLQEIRKYYMSLKSEVATIDRRRKRLKKKDREVSHAGASMSSASSDTGMSPSSSSPPQNVLAVECR
B2: Arid4b (Sap180) (protein, UniProt A2CG63 1-1314)
chain: MKALDEPPYLTVGTDVSAKYRGAFCEAKIKTAKRLVKVKVTFRHDSSTVEVQDDHIKGPLKVGAIVEVKNLDGAYQEAVINKLTDASWYTVVFDDGDEKTLRRSSLCLKGERHFAESETLDQLPLTNPEHFGTPVIGKKTNRGRRSNHIPEEESSSSSSDDDEEERKQTDELLGKVVCVDYVSLEKKKAMWFPALVVCPDCSDEIAVKKDNILVRSFKDGKFTSVPRKDVHEITSDTVPKPDAVLKQAFDQALEFHKSRAIPANWKTELKEDSSSSEAEEEEEEEDDEKEKEDNSSEEEEEIEPFPEERENFLQQLYKFMEDRGTPINKRPVLGYRNLNLFKLFRLVHKLGGFDNIESGAVWKQVYQDLGIPVLNSAAGYNVKCAYKKYLYGFEEYCRSANIDFQMALPEKVLNKPCKDCENKEVKVKEESETEIKEVNVEDSKNVMPKEETPAEDESERKENIKPSLGSKKSLLECIPAQSDEEKEAHITKLEENENLEDKDGGRARTEEAFSTEVDGEEEQARSGDETNKEEDEDDEEIEEEEEEDEEEDEDEDDDDNNEEEEFECYPPGMKVQVRYGRGKNQKMYEASIKDSDVEGGEALYLVHYCGWNVRYDEWIKADKIVRPADKNVPKIKHRKKIKNKLDKEKDRDEKYSPKNCKLRRLSKSPFQSNPSPEMVSKLDLADAKNSDTAHIKSIEITSILNGLQASESSAEDSEQEDERCTQDVDNIGKDESKVEHSTHSRNELISKEEQSSPSLLEENKVHTDLVIAKTVSKSPERLRKDMEAISEDTDFEEEDEITKKRKDVKKDTTDKALKPQTKRGKRRYCSADECLQTGSPGKKEDRTKSKEPLCTENSSNSSSDEDEEEKSKAKMTPTKKYNGLEEKRKSLRTTSFYSGFSEVAEKRIKLLNNSDERLQNNRAKDRKDVWSSIQGQWPKKTLKELFSDSDTEAAASPPHPAPDEGAVEESLQTVAEEESCSPIMELEKPLPASVDNKPIEEKPLEVSDRKTEFPSSGSNSVLNTPPTTPESPSSVTITEASQQQSSVTVSVPLPPNQEEVRSIKSETDSTIEVDSVVGELQDLQSEGNSSPAGFDASVSSSSSNQPEPDNPEKACTGQKRVKDTQGVGSSSKKQKRSHKATVVNNKKKGKGTNSSDSEELSAGESVTKTQTIKSVPTGMKTHNSKSPARVQSPGKGGRNGDKDPDLKEPSNRLPKVYKWSFQTSDLENMTSAERISILQEKLQEIRKHYLSLKSEVASIDRRRKRLKKKERESAATSSSSSSPSSSSITAAVMLTLAEPSMSSASQNGMSVECR
B3: Suds3 (Sds3) (protein, UniProt Q8BR65 1-328)
chain: MSAAGLLAPAPAPAAAPAAPEYYPEDEEELESAEDDERSCRGRESDEDTEDASETDLAKHDEEDYVEMKEQMYQDKLASLKRQLQQLQEGTLQEYQKRMKKLDQQYRERIRNAELFLQLETEQVERNYIKEKKAAVKEFEDKKVELKENLIAELEEKKKMIENEKLTMELTGDSMEVKPIMTRKLRRRPNDPVPIPDKRRKPAPAQLNYLLTDEQIMEDLRTLNKLKSPKRPASPSSPEHLPATPAESPAQRFEARIEDGKLYYDKRWYHKSQAIYLESKDNQKLSCVISSVGANEIWVRKTSDSTKMRIYVGQLQRGLFVIRRRSAA

By UniProt entry, the sequences of proteins in these tests, tags left out.
UniProt Q02650: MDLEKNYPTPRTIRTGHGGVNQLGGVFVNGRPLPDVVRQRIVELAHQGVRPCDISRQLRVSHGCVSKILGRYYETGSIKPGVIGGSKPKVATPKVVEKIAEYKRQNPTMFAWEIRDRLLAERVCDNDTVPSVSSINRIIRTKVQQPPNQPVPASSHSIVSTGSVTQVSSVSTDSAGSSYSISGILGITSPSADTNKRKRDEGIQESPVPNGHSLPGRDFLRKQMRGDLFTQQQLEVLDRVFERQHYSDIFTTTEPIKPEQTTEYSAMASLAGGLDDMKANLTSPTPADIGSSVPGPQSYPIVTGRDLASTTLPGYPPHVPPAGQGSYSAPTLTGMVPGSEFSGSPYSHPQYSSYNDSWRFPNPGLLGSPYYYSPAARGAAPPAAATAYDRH
UniProt Q3TKT4: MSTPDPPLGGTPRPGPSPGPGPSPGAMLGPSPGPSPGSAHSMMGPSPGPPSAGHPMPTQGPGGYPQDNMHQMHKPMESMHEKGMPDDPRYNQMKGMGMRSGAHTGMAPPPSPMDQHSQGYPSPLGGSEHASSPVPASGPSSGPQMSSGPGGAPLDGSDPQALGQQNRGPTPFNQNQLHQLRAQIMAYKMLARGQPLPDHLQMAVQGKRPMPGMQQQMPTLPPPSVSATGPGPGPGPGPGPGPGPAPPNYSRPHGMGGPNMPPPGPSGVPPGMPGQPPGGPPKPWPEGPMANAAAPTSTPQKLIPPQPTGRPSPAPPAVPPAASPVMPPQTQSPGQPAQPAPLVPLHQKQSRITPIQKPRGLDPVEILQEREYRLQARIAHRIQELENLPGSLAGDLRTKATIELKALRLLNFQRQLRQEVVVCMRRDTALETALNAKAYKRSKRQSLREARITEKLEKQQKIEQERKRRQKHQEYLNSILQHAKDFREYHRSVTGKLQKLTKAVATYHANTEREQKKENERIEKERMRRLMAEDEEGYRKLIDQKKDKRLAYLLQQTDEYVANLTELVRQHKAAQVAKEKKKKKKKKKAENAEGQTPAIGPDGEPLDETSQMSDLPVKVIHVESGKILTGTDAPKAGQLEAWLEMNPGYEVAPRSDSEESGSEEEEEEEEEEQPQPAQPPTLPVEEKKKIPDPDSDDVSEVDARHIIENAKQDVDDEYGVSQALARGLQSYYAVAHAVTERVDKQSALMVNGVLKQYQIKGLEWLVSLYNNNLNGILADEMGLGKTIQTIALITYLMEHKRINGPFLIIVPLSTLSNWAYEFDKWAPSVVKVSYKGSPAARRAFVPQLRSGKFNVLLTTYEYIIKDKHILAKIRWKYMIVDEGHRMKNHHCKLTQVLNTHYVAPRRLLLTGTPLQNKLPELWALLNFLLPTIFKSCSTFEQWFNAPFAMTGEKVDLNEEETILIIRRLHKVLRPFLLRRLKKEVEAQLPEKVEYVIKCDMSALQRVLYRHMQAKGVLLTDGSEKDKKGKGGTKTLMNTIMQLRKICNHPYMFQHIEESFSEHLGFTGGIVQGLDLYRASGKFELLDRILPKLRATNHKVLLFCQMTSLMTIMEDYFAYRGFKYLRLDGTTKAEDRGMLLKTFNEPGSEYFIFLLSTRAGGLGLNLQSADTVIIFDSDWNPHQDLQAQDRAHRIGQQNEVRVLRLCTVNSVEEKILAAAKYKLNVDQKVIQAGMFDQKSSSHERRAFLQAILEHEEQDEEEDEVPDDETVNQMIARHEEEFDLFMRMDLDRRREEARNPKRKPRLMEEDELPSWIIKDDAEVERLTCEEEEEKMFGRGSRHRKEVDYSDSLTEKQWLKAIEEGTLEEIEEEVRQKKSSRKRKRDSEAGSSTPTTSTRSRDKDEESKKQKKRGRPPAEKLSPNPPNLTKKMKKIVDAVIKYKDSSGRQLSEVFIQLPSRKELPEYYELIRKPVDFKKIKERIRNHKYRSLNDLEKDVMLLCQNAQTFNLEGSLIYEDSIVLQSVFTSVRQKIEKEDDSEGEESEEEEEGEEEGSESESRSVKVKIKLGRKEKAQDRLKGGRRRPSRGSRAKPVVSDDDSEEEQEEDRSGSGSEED
UniProt P97496: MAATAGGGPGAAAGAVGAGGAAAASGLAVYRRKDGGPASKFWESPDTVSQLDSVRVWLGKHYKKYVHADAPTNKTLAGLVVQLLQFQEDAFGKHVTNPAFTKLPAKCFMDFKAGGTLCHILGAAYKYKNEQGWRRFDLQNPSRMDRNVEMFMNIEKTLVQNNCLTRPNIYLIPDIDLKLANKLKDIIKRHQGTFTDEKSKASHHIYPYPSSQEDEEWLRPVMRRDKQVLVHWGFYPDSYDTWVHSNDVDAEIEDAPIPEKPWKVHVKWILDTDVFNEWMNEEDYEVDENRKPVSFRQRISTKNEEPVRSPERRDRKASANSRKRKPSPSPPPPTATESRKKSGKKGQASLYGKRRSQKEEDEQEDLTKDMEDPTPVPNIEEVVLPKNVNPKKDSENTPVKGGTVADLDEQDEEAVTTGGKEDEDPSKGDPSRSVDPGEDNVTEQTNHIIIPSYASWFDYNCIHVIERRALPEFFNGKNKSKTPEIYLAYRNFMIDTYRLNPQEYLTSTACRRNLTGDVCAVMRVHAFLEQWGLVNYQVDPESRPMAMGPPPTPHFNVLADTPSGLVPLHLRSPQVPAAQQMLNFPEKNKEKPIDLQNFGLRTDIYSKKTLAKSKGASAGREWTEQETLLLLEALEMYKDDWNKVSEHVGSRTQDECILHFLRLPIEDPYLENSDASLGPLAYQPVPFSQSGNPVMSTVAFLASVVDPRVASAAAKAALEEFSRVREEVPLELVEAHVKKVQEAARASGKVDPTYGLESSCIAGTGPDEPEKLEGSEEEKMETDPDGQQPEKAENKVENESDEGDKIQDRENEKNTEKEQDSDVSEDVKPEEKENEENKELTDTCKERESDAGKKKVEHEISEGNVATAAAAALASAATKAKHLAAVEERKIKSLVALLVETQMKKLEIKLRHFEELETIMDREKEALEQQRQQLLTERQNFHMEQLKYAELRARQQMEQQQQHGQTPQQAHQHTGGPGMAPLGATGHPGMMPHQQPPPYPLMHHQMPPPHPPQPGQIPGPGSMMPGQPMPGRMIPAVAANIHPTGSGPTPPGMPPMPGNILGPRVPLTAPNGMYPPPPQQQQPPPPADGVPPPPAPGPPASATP
UniProt Q61466: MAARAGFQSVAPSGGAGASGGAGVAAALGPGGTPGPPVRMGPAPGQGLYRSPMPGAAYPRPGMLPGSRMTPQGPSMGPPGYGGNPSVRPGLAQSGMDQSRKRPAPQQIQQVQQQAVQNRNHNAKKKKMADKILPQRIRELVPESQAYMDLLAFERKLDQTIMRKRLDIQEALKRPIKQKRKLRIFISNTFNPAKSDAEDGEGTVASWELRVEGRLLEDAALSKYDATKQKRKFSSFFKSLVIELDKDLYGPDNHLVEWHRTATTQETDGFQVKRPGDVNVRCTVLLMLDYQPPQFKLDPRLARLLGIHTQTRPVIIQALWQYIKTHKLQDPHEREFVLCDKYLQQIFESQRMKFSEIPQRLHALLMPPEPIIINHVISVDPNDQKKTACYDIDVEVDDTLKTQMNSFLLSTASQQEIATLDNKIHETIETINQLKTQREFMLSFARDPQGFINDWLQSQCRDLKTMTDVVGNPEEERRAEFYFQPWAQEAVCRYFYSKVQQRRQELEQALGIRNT
UniProt O54941: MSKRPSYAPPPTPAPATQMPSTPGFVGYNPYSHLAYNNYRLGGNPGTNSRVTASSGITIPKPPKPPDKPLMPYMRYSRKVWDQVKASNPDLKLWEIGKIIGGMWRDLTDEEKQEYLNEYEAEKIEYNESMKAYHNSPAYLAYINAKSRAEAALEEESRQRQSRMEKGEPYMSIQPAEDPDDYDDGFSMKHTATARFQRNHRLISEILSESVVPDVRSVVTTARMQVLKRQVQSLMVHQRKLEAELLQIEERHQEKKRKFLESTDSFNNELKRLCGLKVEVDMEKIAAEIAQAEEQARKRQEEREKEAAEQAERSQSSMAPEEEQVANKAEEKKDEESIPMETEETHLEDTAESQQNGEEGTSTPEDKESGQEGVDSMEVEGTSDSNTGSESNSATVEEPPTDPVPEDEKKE

Biological target: full-length Pax5 protein (mouse) (UniProt Q02650)
Experiment: affinity purification with mass spectrometry; Co-IP-MS: nuclear extracts of in vitro cultured Pax5+/+, Pax5∆CRD1/− or Pax5∆CRD1,2/− pro-B cells, IP with anti-Pax5 paired domain antibody on Protein A Mag Sepharose beads, 2 h at 4°C; washes with 20 mM Tris pH 8.0, 1.5 mM MgCl2, 10% glycerol, 250 mM NaCl, 0.15% NP-40; label-free quantification, abundance normalized to equal amounts of the bait (Pax5)

| Molecule | binding |
| --- | --- |
| Smarca4 (Brg1) (from UniProt Q3TKT4 1-1613) | binds |
| Smarcc1 (Baf155) (from UniProt P97496 1-1104) | binds |
| Smarcd1 (Baf60A) (from UniProt Q61466 1-515) | binds |
| Smarce1 (Baf57) (from UniProt O54941 1-411) | binds |
| B1 | binds |
| B2 | binds |
| B3 | binds |
